Results reported in US11564904B2, “Gingko diterpene lactone composition” (Jiangsu Kanion Pharmaceutical Co., Ltd., priority 2017, dated 2023).
At least one compound was matched to its structure with a doubt left.

Tested on: right middle cerebral artery occlusion (MCAO) model
Assay: Focal cerebral ischemia-reperfusion injury (MCAO) model in rats
Format: in vivo, SD rats
Conditions: nimodipine 10.8 mg/kg, x ± s, n = 10, listed as nimodipine
[1] = serum 24 hours after reperfusion, compositions 2.4 g·kg^−1 i.v.

SMILES: COCCOC(=O)C1=C(C)NC(C)=C(C(=O)OC(C)C)C1c1cccc([N+](=O)[O-])c1 (centres unmarked) [Nimodipine]
- Infarct size % (TTC staining 24 hours after re-perfusion, compositions 2.4 g·kg^−1 i.v.): significantly reduce the infarct size
- BWC % (brain water content 24 hours after re-perfusion, compositions 2.4 g·kg^−1 i.v.): had significant differences with the model group
- Neurologic score (rat MCAO, 3 h ischemia, after reperfusion, compositions 2.4 g·kg^−1 tail vein injection): significantly reduce the neurologic score
- MDA/nmol* mg^−1 [1]: MDA content significantly reduced
- SOD/U*mg^−1 [1]: SOD activity enhanced
